In PubChem BioAssay AID1487 (National Center for Advancing Translational Sciences (NCATS), 2009):
The other results are listed elsewhere or left out. Shown are side measurements of this screen, not its main read-out; they come without a call. The list favours compounds with an active or inconclusive main result. Potencies come from curve fits of mixed quality, noted in brackets.

Test: qHTS Assay for Modulators of Lamin A Splicing
Conditions: HeLa LMNA splicing GFP/RFP minigene ratio, 48 h
Method in brief: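 S3 HeLa cells stably expressing lamin A-EGFP splicing minigene plus DsRed2, 600 cells/well, 48 h compound exposure at 37C. Laser-scanning cytometry; analysed as GFP (500-530 nm)/RFP (575-640 nm) total intensity ratio; 0.5% DMSO vehicle.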

[1] = measured here: RFP viability control channel
[2] = measured here: GFP splicing reporter channel

Compound: COc1ccc(NC(=O)/C=C/c2ccc(F)cc2)cn1
- AC50 [1]: 14.1 µM [rising, partial curve]

Compound: CSc1nc2ccccc2n1CC(=O)Nc1c(C)cccc1C
- AC50 [1]: 22.4 µM [rising, partial curve]

Compound: Cc1ccc(-c2nc(C)c(CCNC(=O)c3ccccc3Br)s2)cc1
- AC50 [2]: 14.1 µM [falling, partial curve, poor fit]
- AC50 [1]: 35.5 µM [falling, single point]

Compound: CCN1CCN(C(=S)Nc2ccc(Cl)c(Cl)c2)CC1
- AC50 [2]: 3.16 µM [rising, partial curve]
- AC50 [1]: 11.2 µM [rising, partial curve]

Compound: O=CNCC(=O)NC1CCCCCC1
- AC50 [1]: 5.62 µM [falling, partial curve]

Compound: CCN(CC)S(=O)(=O)c1cc(-c2nnc(-c3ccc(Br)cc3)o2)ccc1Br
- AC50 [1]: 15.8 µM [rising, single point]

Compound: CCOC(=O)C1(Cc2ccc(O)cc2)NC(c2ccccc2F)C2C(=O)N(C)C(=O)C21 (configuration not stated)
- AC50 [1]: 25.1 µM [rising, single point]

Compound: Cc1ccc(Nc2ccc(C(N)=O)cc2[N+](=O)[O-])cc1C
- AC50 [1]: 17.8 µM [rising, single point]

Compound: O=c1cc(N2CCN(c3cccc(Cl)c3)CC2)[nH]c(=O)n1C1CCCCC1
- AC50 [1]: 5.01 µM [falling, full curve, poor fit]

Compound: COc1cccc(Cn2c(=O)c(-c3ccccc3)nc3cncnc32)c1
- AC50 [2]: 11.2 µM [falling, partial curve]
- AC50 [1]: 17.8 µM [falling, single point]

Compound: O=C(N/N=C/c1c(O)n(Cc2ccccc2)c(=O)c2ccccc12)c1cccnc1
- AC50 [1]: 35.5 µM [rising, single point]

Compound: Cc1ccccc1-c1ccc(Nc2ccc(N3CCOCC3)cc2)nn1
- AC50 [2]: 15.8 µM [rising, partial curve, poor fit]
- AC50 [1]: 31.6 µM [rising, single point]

Compound: O=C(CNC(=O)c1ccccc1Cl)N/N=C/c1ccc([N+](=O)[O-])s1
- AC50 [1]: 14.1 µM [rising, partial curve]

Compound: CC(C)(C)NS(=O)(=O)c1ccc(NC(=O)C(Sc2ccccc2)c2ccccc2)cc1 (configuration not stated)
- AC50 [2]: 22.4 µM [falling, single point]
- AC50 [1]: 35.5 µM [falling, single point]

Compound: Cc1c(C(=O)Nc2cc(F)ccc2F)sc2nc(-c3ccc(F)cc3)cn12
- AC50 [2]: 0.0316 µM [falling, full curve, poor fit]

Compound: COc1ccc(OC)c(NS(=O)(=O)c2ccc(NC(=O)C3COc4ccccc4O3)cc2)c1 (configuration not stated)
- AC50 [2]: 15.8 µM [rising, single point]
- AC50 [1]: 22.4 µM [rising, single point]

Compound: CCn1cc(C(=O)NCCCN(C)c2ccccc2)c(=O)c2cc(S(=O)(=O)N(C)C)ccc21
- AC50 [1]: 25.1 µM [rising, single point]

Compound: CCCCCCOc1ccc(C2C(=O)N(C3CCCCC3)CC(=O)N2C2CCCCC2)cc1 (configuration not stated)
- AC50 [2]: 0.398 µM [falling, partial curve]
- AC50 [1]: 0.282 µM [falling, full curve, poor fit]

Compound: O=c1c2ccccc2nc2n1CCCS2
- AC50 [2]: 0.398 µM [falling, full curve, poor fit]
- AC50 [1]: 1 µM [falling, partial curve, poor fit]

Compound: CC(C)(C)c1ccc(CNc2ccc([N+](=O)[O-])cn2)cc1
- AC50 [2]: 22.4 µM [rising, single point]
- AC50 [1]: 35.5 µM [rising, single point]

Compound: CN1/C(=C\C(=O)c2cncc(Br)c2)C(C)(C)c2ccccc21
- AC50 [2]: 11.2 µM [rising, partial curve]
- AC50 [1]: 17.8 µM [rising, partial curve]

Compound: COc1cc(/C=N/NC(=O)CSc2cc(C)c(Br)cc2C)ccc1O
- AC50 [1]: 12.6 µM [rising, single point]

Compound: CCc1ccc(C2=C/C(=C/c3cccnc3)C(=O)O2)cc1
- AC50 [1]: 35.5 µM [rising, single point]

Compound: Cc1cc2cc3c(cc2nc1SCC(=O)N1c2ccccc2CC1C)OCO3 (configuration not stated)
- AC50 [1]: 15.8 µM [rising, single point]

Compound: Cc1ccc(S(=O)(=O)N2CCOCC2)cc1C(=O)N1c2ccccc2Sc2ccccc21
- AC50 [1]: 35.5 µM [rising, single point]

Compound: CCOC(=O)N1CCN(C(=O)CCCCn2c(=S)[nH]c3ccsc3c2=O)CC1
- AC50 [2]: 0.2 µM [rising, full curve, poor fit]
- AC50 [1]: 7.94 µM [rising, full curve, poor fit]

Compound: OCCN1CCN(CCOc2ccccc2-c2ccccc2)CC1
- AC50 [2]: 14.1 µM [rising, partial curve]
- AC50 [1]: 0.0501 µM [rising, full curve]

Compound: CC1(C)CC2CC(C)(CN2C(=S)NC(=O)c2ccccc2Cl)C1 (configuration not stated)
- AC50 [1]: 35.5 µM [rising, single point]

Compound: Cc1nc2c3ccccc3nc(SCC(=O)c3ccc(Cl)cc3)n2n1
- AC50 [1]: 35.5 µM [rising, single point]

Compound: Nc1n[nH]c2c1C1(CCCC1)Cc1ccccc1-2
- AC50 [2]: 1.41 µM [rising, partial curve, poor fit]

Compound: O=C(NC1CCCC1)C(c1ccc(N2CCOCC2)cc1)N(Cc1ccccc1)C(=O)c1ccco1 (configuration not stated)
- AC50 [2]: 12.6 µM [rising, partial curve, poor fit]
- AC50 [1]: 0.891 µM [rising, full curve, poor fit]

Compound: O=C(c1ccccc1)N1c2nc(-c3ccco3)nn2C2(CCCCC2)[C@@H]2CCCC[C@@H]21
- AC50 [1]: 5.01 µM [rising, single point]

Compound: Cc1cc(C)cc(NC(=O)Cc2noc3ccccc23)c1
- AC50 [2]: 12.6 µM [falling, single point]
- AC50 [1]: 3.16 µM [rising, partial curve]

Compound: O=C(NC1CCCc2ccccc21)c1ccc(Br)cc1 (configuration not stated)
- AC50 [1]: 31.6 µM [rising, single point]

Compound: CC(NC(=O)c1cccc(S(=O)(=O)N(C)C)c1)c1nc2ccccc2[nH]1 (configuration not stated)
- AC50 [2]: 0.0398 µM [falling, full curve, poor fit]
- AC50 [1]: 0.708 µM [falling, single point]

Compound: Cc1ccccc1OCc1ccc(-c2nc(C#N)c(N3CCN(c4cccc(Cl)c4)CC3)o2)o1
- AC50 [2]: 0.0562 µM [falling, full curve, poor fit]

Compound: O=C1NC(c2ccccc2)=NC1(NS(=O)(=O)c1ccc(Cl)cc1)C(F)(F)F (configuration not stated)
- AC50 [1]: 7.94 µM [rising, partial curve]

Compound: CC(NC(=O)c1ccc(Cn2cc([N+](=O)[O-])cn2)cc1)c1ccccc1 (configuration not stated)
- AC50 [2]: 5.62 µM [rising, single point]

Compound: COc1ccc(C(=O)C2CCCN(C(=O)c3n[nH]c4c3CCCC4)C2)cc1OC (configuration not stated)
- AC50 [1]: 4.47 µM [falling, full curve, poor fit]

Compound: COc1ccc(NC(=O)/C(Cl)=C(/Cl)S(=O)(=O)Cc2ccc(C)cc2)cn1
- AC50 [2]: 3.55 µM [falling, full curve]
- AC50 [1]: 5.62 µM [falling, full curve]

Compound: COc1ccccc1N1CCN(C(=O)C2CCCN(S(=O)(=O)c3ccc4c(c3)CCCN4C(C)=O)C2)CC1 (configuration not stated)
- AC50 [2]: 3.55 µM [falling, full curve, poor fit]

Compound: COc1ccccc1NC1=CC(=O)CC(c2ccccc2)C1 (configuration not stated)
- AC50 [1]: 12.6 µM [rising, partial curve, poor fit]

Compound: COc1cc(/C=C(/C(=O)c2cccs2)c2nc3ccccc3[nH]2)ccc1O
- AC50 [2]: 5.01 µM [falling, partial curve]
- AC50 [1]: 3.55 µM [falling, full curve, poor fit]

Compound: Cn1nc(CC(=O)Nc2ccc(N3CCN(C(=O)OC(C)(C)C)CC3)cc2)c2ccccc2c1=O
- AC50 [2]: 0.708 µM [rising, full curve]
- AC50 [1]: 0.891 µM [rising, full curve]

Compound: Cc1ccc2nc(-c3ccccc3)c(CN3CCSCC3)n2c1
- AC50 [2]: 0.00316 µM [rising, full curve, poor fit]

Compound: CC(OC(=O)c1ccc(NS(=O)(=O)c2cccs2)cc1)C(=O)N(C)C1CCCCC1 (configuration not stated)
- AC50 [1]: 35.5 µM [rising, single point]

Compound: COc1cc(/C=N/NC(N)=S)ccc1OCC(=O)N1CCOCC1
- AC50 [2]: 0.794 µM [falling, full curve, poor fit]
- AC50 [1]: 0.631 µM [falling, full curve, poor fit]

Compound: COc1ccc(N2CCN(C(=O)c3ccc(S(=O)(=O)N4CCOCC4)cc3)CC2)cc1
- AC50 [1]: 14.1 µM [rising, single point]

Compound: CC1CC(C)(C)NC(=S)O1 (configuration not stated)
- AC50 [2]: 5.62 µM [falling, single point]
- AC50 [1]: 5.62 µM [falling, single point]

Compound: O=C(CCN1CCCC1)Nc1ccccc1
- AC50 [2]: 3.55 µM [falling, single point]
- AC50 [1]: 3.16 µM [falling, single point]

Compound: CCOCCCNC(=O)/C(C#N)=C/c1ccc([N+](=O)[O-])o1
- AC50 [1]: 20 µM [rising, single point]

Compound: CCC(Sc1nc(C)cc(C)n1)C(=O)Nc1cc(C)on1 (configuration not stated)
- AC50 [1]: 0.631 µM [falling, full curve, poor fit]

Compound: O=C(COc1ccccc1)c1cn(CC(=O)N2CCCC2)c2ccccc12
- AC50 [2]: 0.0282 µM [falling, full curve, poor fit]

Compound: CCN(CC)c1ccc(-c2nn3c(-c4n[nH]c5c4CCC5)nnc3s2)cc1
- AC50 [1]: 0.1 µM [rising, full curve]

Compound: CCCCCC(=O)O[C@]1(C(C)=O)CC[C@H]2[C@@H]3CCC4=CC(=O)CC[C@]4(C)[C@H]3CC[C@@]21C
- AC50 [2]: 15.8 µM [rising, partial curve, poor fit]
- AC50 [1]: 20 µM [rising, partial curve]
